# Source: the supplement of paper PMC8256030
# Values joined by “and” are separate entries in the source; they are usually repeats but may differ in a detail not shown here. Equal values may be shown once. This is one part of the list. Repeats in this data set agree poorly, so a single value says little.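 HEK293T cells were given each compound shortly before transfection with a reporter in which red mCherry is followed by the SARS-CoV-2 frameshift element and then GFP in the −1 frame, so GFP appears only after frameshifting.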
# Tests used:
# [1] = test system: SARS-CoV-2 -1 PRF reporter mCherry-FSE-GFP(-1); test: mCherry (red) intensity as percent of control; higher = higher upstream reporter expression; conditions: 10 µM; 24 h; HEK293T
# [2] = test system: SARS-CoV-2 -1 PRF reporter mCherry-FSE-GFP(-1); test: percent effect, decrease of GFP/mCherry ratio (-1 PRF reporter) relative to controls; higher = stronger frameshift inhibition; conditions: 10 µM; 24 h; HEK293T
Compound,mCherry [1],percent effect [2]
NC(N)=NS(=O)(=O)c1ccc(N)cc1,89%,-2.68%
C#C[C@]1(OC(C)=O)CC[C@H]2[C@@H]3CCC4=CC(=NO)CC[C@@H]4[C@H]3CC[C@@]21CC (mixture of isomers) [norgestimate],107%,-2.58%
CCCCC[C@H](O)/C=C/[C@H]1[C@H](O)CC(=O)[C@@H]1C/C=C\CCCC(=O)O [dinoprostone],102% and 97.6%,-5.34% and -1.22%
Nc1ccc(C(=O)O)cc1,104%,-5.19%
CCOc1ccc2ccccc2c1C(=O)N[C@@H]1C(=O)N2[C@@H]1SC(C)(C)[C@@H]2C(=O)O [nafcillin],94%,1.73%
COc1ccc(NS(=O)(=O)c2ccc(N)cc2)nn1 [sulfamethoxypyridazine],104%,-2.79%
Nc1nnc(-c2cccc(Cl)c2Cl)c(N)n1 [lamotrigine],99.8% and 106%,-0.493% and 1.82%
O=C(Nc1ccccc1)c1ccccc1O,87.2%,-4.58%
CC(C)=C/C(C)=N/Nc1nncc2ccccc12 [budralazine],78.6%,1.75%
CC1(C)[C@@H](O)CC[C@]2(C)[C@H]3C(=O)C=C4[C@@H]5C[C@@](C)(C(=O)O)CC[C@]5(C)CC[C@@]4(C)[C@]3(C)CC[C@@H]12 [enoxolone],111%,2.89%
CC(=O)Nc1ccc(S(=O)(=O)Nc2ccc([N+](=O)[O-])cc2)cc1 [sulfanitran],101%,-3.9%
N[C@@H](Cc1ccc(O)cc1)C(=O)O [tyrosine],96.1%,-0.728%
CCC(C)(C)c1ccc(CC(C)CN2C[C@@H](C)O[C@@H](C)C2)cc1 (stereo partly specified) [amorolfine],99.7% and 88.1%,-1.48% and -8.95%

# Copied from the list:
# `CC1(C)[C@@H](O)CC[C@]2(C)[C@H]3C(=O)C=C4[C@@H]5C[C@@](C)(C(=O)O)CC[C@]5(C)CC[C@@]4(C)[C@]3(C)CC[C@@H]12` [enoxolone] – percent effect [2]: 2.89%
# `CCOc1ccc2ccccc2c1C(=O)N[C@@H]1C(=O)N2[C@@H]1SC(C)(C)[C@@H]2C(=O)O` [nafcillin] – mCherry [1]: 94%
